# Counter-ions that a name gives are not always drawn. Like-named read-outs stand apart in the source and are kept apart here. About 60 (2%) of roughly 3,300 compounds showed an effect of 50% or more. Some of the results follow.
# System: HCoV-OC43
# Design: species or system RD; HTS, protection from HCoV-OC43 induced cell death, luminescent cell viability (CellCounting-Lite 2.0), inhibition rate
# Settings: 24 h post infection, 1 h compound pre-incubation, 10 µM, inhibitor
Compound,OC43 Inhibition rate,"OC43 Inhibition rate (OC43 Inhibition rate, 24 h)"
COC(=O)/C=C/c1ccc(O)c(OC)c1 [Ferulic acid methyl ester],-0.4%,
CCCCCCCCCCCCCCCCC(=O)O [Heptadecanoic acid],-0.6%,
CCCCCCCCCC(C)=O [2-Undecanone],-0.6%,
N=C(N)NCCC[C@H](N)C(=O)O [L-Arginine],,2.7%
C[S+]([O-])CCCC/C(=N\OS(=O)(=O)O)S[C@@H]1O[C@H](CO)[C@@H](O)[C@H](O)[C@H]1O (some centres unmarked) [Glucoraphanin],-2.3%,
Cc1ccc(C=O)o1 [5-Methylfurfural],-2.9%,
C=C[C@@H]1CNC(=S)O1 [Epigoitrin],-1.3%,
CC(=O)O[C@H]1C[C@@]2(C)[C@@H](C[C@@H](O)[C@H]3[C@@]4(C)CC[C@@H](O)[C@@H](C)[C@@H]4CC[C@@]32C)/C1=C(\CCC=C(C)C)C(=O)O [Fusidic acid (sodium salt)],1.2%,
COc1ccc2c(C)c3[n+](cc2c1OC)CCc1cc2c(cc1-3)OCO2 [13-Methylberberine (chloride)],-8.6%,
CCCCCCCCCCCCCCCCCCCCCCC(=O)O [Tricosanoic acid],-0.3%,
CC(=O)O[C@H]1C[C@H]2CC[C@]1(C)C2(C)C [Bornyl acetate],-0.3%,
CCCCCCCCCCCCCCCCCCCCCCCC(=O)OC [Methyl tetracosanoate],0%,
COc1cc2c(cc1O)C[C@H]1c3cc(O)c(OC)cc3CC[N+]1(C)C2 (some centres unmarked) [Phellodendrine (chloride)],0%,
COc1cc(/C=C/c2ccc(OC)c(OC)c2)oc(=O)c1 [11-Methoxyyangonin],1%,
C=C1C(=O)O[C@H]2C1CC[C@@](C)(O)C13C=CC(C)(C21)C1(C3)C(=O)O[C@@H]2C3C(C)=CCC3[C@](C)(O)[C@H](OC(C)=O)CC21 (some centres unmarked) [Handelin],6.6%,
C=C(C)[C@@H]1CC=C(C=O)CC1 [L-Perillaldehyde],0.1%,
C[C@H](C[C@H](O)[C@H]1OC1(C)C)C1=C2C[C@H](O)[C@H]3[C@@]4(C)CCC(=O)C(C)(C)[C@@H]4CC[C@]3(C)[C@@]2(C)CC1 [Alisol B],35.6%,
N=C(N)NCCCCN [Agmatine (sulfate)],-13%,
CC1(C)CCC[C@]2(C)[C@@H](C=O)C(C=O)=CC[C@@H]12 [Polygodial],0.9%,
O=C(O)/C=C\C(=O)O [Maleic Acid],-1.8%,
O=C(O)CCc1ccccc1 [Hydrocinnamic acid],0.1%,
COc1cccc(CC(=O)O)c1 [3-Methoxyphenylacetic acid],-0.4%,

Compound,OC43 Inhibition rate,"OC43 Inhibition rate (OC43 Inhibition rate, 24 h)"
Cc1cc(O)c2c(c1)C(=O)c1cccc(O[C@@H]3O[C@H](CO)[C@@H](O)[C@H](O)[C@H]3O)c1C2=O [Chrysophanol 8-O-glucoside],1.1%,
CCCCCCCCCCCCCCCCCCOC(=O)[C@@]1(C)CC[C@]2(C)CC[C@]3(C)C(=CC(=O)[C@@H]4[C@@]5(C)CC[C@H](O)C(C)(C)[C@@H]5CC[C@]43C)[C@@H]2C1 [Stearyl glycyrrhetinate],-2.5%,
C[C@@H]1CC[C@]2(C(=O)O[C@@H]3O[C@H](CO)[C@@H](O)[C@H](O)[C@H]3O)CC[C@]3(C)C(=CC[C@@H]4[C@@]5(C)CC[C@H](O)[C@@](C)(CO)[C@@H]5CC[C@]43C)[C@@H]2[C@]1(C)O [Pedunculoside],2.3%,
CCCCCCCCCCCC1=C(O)C(=O)C=C(O)C1=O [Embelin],-0.4%,
O=c1c(O)c(-c2ccc(O)c(O)c2)oc2cc(O)cc(O)c12 [Quercetin (dihydrate)],,-0.4%
COc1c2ccoc2cc2oc(=O)ccc12 [Bergapten],3.9%,
O=C(O)C=Cc1ccc(O)cc1 [p-Hydroxycinnamic acid],0.2%,
CN1CCc2cc3c(c4c2C1Cc1ccccc1-4)OCO3 (centres unmarked) [Roemerine],2.4%,
CC/C=C\CC1=C(C)CCC1=O [cis-Jasmone],-6%,
"O[C@@H]1CCCC[C@H]1O (relative stereo) [trans-Cyclohexane-1,2-diol]",2.5%,
NC(=O)NC1NC(=O)NC1=O (centres unmarked) [Allantoin],-0.1%,
O=C(O)[C@H]1O[C@@H](Oc2c(O)cc(O)c3c(=O)c(O)c(-c4ccc(O)c(O)c4)oc23)[C@H](O)[C@@H](O)[C@@H]1O [Hibifolin],-1.3%,
CCCCCCCCCCCCCC(=O)O [Myristic acid],-1.2%,
CC(C)=CCC[C@](C)(O)[C@H]1CC[C@]2(C)[C@@H]1[C@H](O)C[C@@H]1[C@@]3(C)CC[C@H](O)C(C)(C)[C@@H]3[C@@H](O[C@@H]3O[C@H](CO)[C@@H](O)[C@H](O)[C@H]3O[C@@H]3O[C@H](CO)[C@@H](O)[C@H](O)[C@H]3O)C[C@]12C [Ginsenoside Rf],-0.4%,
"O=c1cc(-c2ccc(O)cc2)oc2cc(O)ccc12 [7,4'-Dihydroxyflavone]",14.2%,
CN1c2c([nH]c(N)nc2=O)NC[C@@H]1CNc1ccc(C(=O)N[C@@H](CCC(=O)O)C(=O)O)cc1 [Levomefolic acid],6.2%,
"CCOC(=O)c1ccc(O)c(O)c1 [Ethyl 3,4-dihydroxybenzoate]",0.2%,
CCC/C=C1/OC(=O)c2ccccc21 [3-Butylidenephthalide],-0.2%,
COc1cc(-c2oc3cc(O)cc(O)c3c(=O)c2O[C@@H]2O[C@H](CO)[C@@H](O)[C@H](O)[C@H]2O)ccc1O [Isorhamnetin-3-O-glucoside],-0.7%,
CC(C)[C@@H](C)/C=C/[C@@H](C)[C@H]1CC[C@H]2C3=CC=C4C[C@@H](O)CC[C@@]4(C)[C@@H]3CC[C@]12C [Lumisterol],-2.7%,
CC1=C2C(=O)O[C@@H](c3ccoc3)[C@]2(C)CCC1 [Fraxinellone],3.1%,
CC(O)[C@H](C)[C@H](N)C(=O)O (some centres unmarked) [4-Hydroxyisoleucine],-0.1%,

# As a short view, part of the list above:
Compound,OC43 Inhibition rate,"OC43 Inhibition rate (OC43 Inhibition rate, 24 h)"
O=C(O)C=Cc1ccc(O)cc1 [p-Hydroxycinnamic acid],0.2%,
CN1CCc2cc3c(c4c2C1Cc1ccccc1-4)OCO3 (centres unmarked) [Roemerine],2.4%,
CC/C=C\CC1=C(C)CCC1=O [cis-Jasmone],-6%,
"O[C@@H]1CCCC[C@H]1O (relative stereo) [trans-Cyclohexane-1,2-diol]",2.5%,
NC(=O)NC1NC(=O)NC1=O (centres unmarked) [Allantoin],-0.1%,
O=C(O)[C@H]1O[C@@H](Oc2c(O)cc(O)c3c(=O)c(O)c(-c4ccc(O)c(O)c4)oc23)[C@H](O)[C@@H](O)[C@@H]1O [Hibifolin],-1.3%,
CCCCCCCCCCCCCC(=O)O [Myristic acid],-1.2%,
CC(C)=CCC[C@](C)(O)[C@H]1CC[C@]2(C)[C@@H]1[C@H](O)C[C@@H]1[C@@]3(C)CC[C@H](O)C(C)(C)[C@@H]3[C@@H](O[C@@H]3O[C@H](CO)[C@@H](O)[C@H](O)[C@H]3O[C@@H]3O[C@H](CO)[C@@H](O)[C@H](O)[C@H]3O)C[C@]12C [Ginsenoside Rf],-0.4%,
"O=c1cc(-c2ccc(O)cc2)oc2cc(O)ccc12 [7,4'-Dihydroxyflavone]",14.2%,
CN1c2c([nH]c(N)nc2=O)NC[C@@H]1CNc1ccc(C(=O)N[C@@H](CCC(=O)O)C(=O)O)cc1 [Levomefolic acid],6.2%,
"CCOC(=O)c1ccc(O)c(O)c1 [Ethyl 3,4-dihydroxybenzoate]",0.2%,
